Results are given in words; binding and its absence hold for the method and conditions named. Binding seen in cells or lysates may run through a third protein. Here binding means that the protein was enriched with, or labelled near, the bait; the list need not be complete.
Biological target: GFP-tagged AfRom2 CNH domain expressed in A. fumigatus (gpd-gfp-rom2 (2725-3792)) (Aspergillus fumigatus) (UniProt Q4WUI2)
Assay: affinity purification with mass spectrometry; GFP-Trap resin with lysate of the A. fumigatus strain expressing gpd-gfp-cnh, gpd-gfp strain as control; washes with 350 mM NaCl; eluted proteins analysed by LC-MS

The chains behind the UniProt entries cited, without tags or fusion partners.
UniProt A0A068C8U8: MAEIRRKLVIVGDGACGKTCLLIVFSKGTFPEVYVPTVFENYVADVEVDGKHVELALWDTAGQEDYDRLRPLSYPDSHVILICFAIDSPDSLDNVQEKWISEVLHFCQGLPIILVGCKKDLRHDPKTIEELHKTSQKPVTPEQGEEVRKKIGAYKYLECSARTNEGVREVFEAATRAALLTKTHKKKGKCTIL

In the case of “Rho1 (endogenous, A. fumigatus) (from UniProt A0A068C8U8 1-193)”, the binding is reported as “binds”.

— PMC8488606
